Source: PubChem BioAssay AID2685 (National Center for Advancing Translational Sciences (NCATS), 2010)
Hit rate of the full screen: of about 320,000 compounds, about 2,100 (0.66%) were called active. Inconclusive results, whose numbers are uncertain, are shown with a selection of clear calls. Calls follow the shape of the dose curve; as a rule, active = well fitted inhibition curve with a large enough effect in the signal ratio, with a control signal flat (not every such curve was filed as active); inconclusive = small, poorly fitted or top-dose-only effect, or effect the other way, or a change in a side signal; inactive = flat fitted curve, though single readings scatter; the % refers to the signal ratio. A potency beside an inconclusive call is a rough fit, not a confirmed value.

assay: qHTS Assay for Lipid Storage Modulators in Drosophila S3 Cells; details: BODIPY lipid droplet fluorescence, 18-24 h, cells fed with added oleic acid; lipid storage change, negative = inhibition: at 46.1 µM (top of the series) unless noted
How it was run: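 Drosophila S3 cells got compounds at several concentrations plus oleic acid (400 uM solution). Laser-scanning cytometry with 488 nm excitation read lipid droplets at 500-530 nm and cells at 575-640 nm. Percent activity was relative to 20 uM Triacsin C.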
% is scaled to controls: 0 for no effect and ±100 for the full control effect; potency is read from the fitted curve at half-maximal effect.

Structure (SMILES) | lipid storage change, negative = inhibition | Potency
O=C(NCc1ccc2c(c1)OCO2)c1cccc(C(=O)NCc2ccc3c(c2)OCO3)c1 | inconclusive: 11.3% | 
COC(=O)C1=C(C)NC(C)=C(C(=O)OC)C1c1ccc(NC(C)=O)cc1 | inconclusive: 74.5% | 
Cc1sc2ncnc(N3CCC(C(=O)Nc4nc(-c5ccc(F)cc5)cs4)CC3)c2c1C | inconclusive: 37% | 
Cc1nn(C)cc1NC(=O)c1nn(C)cc1[N+](=O)[O-] | inconclusive: 10.6% | 
COC(=O)c1sc(-c2ccc(Cl)cc2)cc1N | inconclusive: 5.26% | 
CC(C)(C)c1ccc(C(=O)NCCOc2ccccc2F)cc1 |  | inconclusive: 25.9 µM [falling, single point]
Cc1ccc(C)c(C(C)NC(=O)c2ccccc2Br)c1 (configuration not stated) | inconclusive: 7.39% | 
O=C(O)c1ccc(-c2nc3scc(-c4ccccc4)c3c(=O)[nH]2)cc1 | inconclusive: -7.6% | 
COc1cc(/C=N/NC(=O)CC23CC4CC(CC(C4)C2)C3)cc(Br)c1OCC(=O)N(C)C | inconclusive: 29.3% | 
O=C(COC(=O)c1ccc(CO)cc1)NCc1cccs1 |  | inconclusive: 0.58 µM [activator, single point]
O=[N+]([O-])c1ccc(/C=N/n2c(-c3ccccc3)n[nH]c2=S)cc1 | inconclusive: -5.14% | 
C/C(=N/NC(=O)c1cccc(N2CCCC2=O)c1)c1ccc(Br)cc1 | inconclusive: -19% | 
Cc1ccc(C(C)C)c(OCc2nn(CC(=O)c3ccc(OC(F)F)cc3)c3[n+]2CCCCC3)c1 | inconclusive: -62.8% | 
CC1CC(C)CN(S(=O)(=O)c2cc(C(=O)O)c(Cl)s2)C1 (configuration not stated) | inconclusive: -3.5% | 
CCOC(=O)N/N=C\c1sccc1C | inconclusive: 26.6% | 
COc1ccc(C(CCN2CCCC(C)C2)c2c(OC)cc(OC)c3c(C)cc(=O)oc23)cc1 (configuration not stated) | inactive | 
Cc1ccc(NC2=CC(=O)CC(c3ccccc3)C2)cc1 (configuration not stated) | inconclusive: -0.277% | 
COc1ccc(C2=NOC(C(=O)Nc3ccc(C)cc3)C2)cc1OC (configuration not stated) |  | inconclusive: 1.16 µM [rising, partial curve]
COc1cc(NCc2ccccc2O)c2ncccc2c1 |  | inconclusive: 0.58 µM [falling, single point]
Cc1ccc(NC(=O)CSc2nnnn2C2CCCC2)cc1S(=O)(=O)N1CCOCC1 | inconclusive: 2.88% | 
O=C(CSc1nc(Nc2ccccc2)nc(N2CCOCC2)n1)Nc1ccccc1Cl |  | inconclusive: 2.31 µM [activator, partial curve]
COC(=O)C1C(C(=O)OC)C1(c1ccccc1)c1ccccc1 (configuration not stated) | inconclusive: 24.2% | 

Whole records, quoted from the list:
COc1ccc(C2=NOC(C(=O)Nc3ccc(C)cc3)C2)cc1OC (configuration not stated) is entered as Potency: inconclusive: 1.16 µM [rising, partial curve]
COc1cc(NCc2ccccc2O)c2ncccc2c1 is entered as Potency: inconclusive: 0.58 µM [falling, single point]
